Reference: patent US9717772B2, “Interval therapy for the treatment of loss of eyesight in humans with glaucoma and other degenerative eye diseases” (Ramot at Tel-Aviv University Ltd., priority 2012, dated 2017)
Part of at least one peptide drawing is inferred or uncertain, most often the ends. Non-standard residues stand in square brackets, D forms with d. Residues, ends and D or L forms follow the SMILES beside them. Aib = CC(C)(N)C(=O)O

Assays:
[1] = system: beta amyloid stimulated retinal ganglion cells; assay: RGC membrane potential recorded by the perforated patch clamp technique; type: cell-based, mouse
retinal ganglion cells = assay: Rat model of glaucoma (chronic ocular hypertension, Morrison model): RGC apoptosis; type: in vivo; conditions: one single s.c injection 3 days prior to the induction of glaucoma
[2] = system: CA1 region of the hippocampus (Aβ1-42 inhibition of LTP); assay: Long-term potentiation (LTP) of fEPSPs in hippocampal slices after Aβ1-42 aggregated with or without D-Trp-Aib; type: cell-based, mice; conditions: Aβ1-42 50 nM aggregated following seeding with D-Trp-Aib, serial dilution; starting 1 μM, final 0.1 nM D-Trp-Aib; p=0.0184
Protocol: Aβ1-42 (order number 62-0-80, batch Y11042T1, American Peptide Company, Sunnyvale, Calif. 94086, U.S.A.) is suspended in 100% HFIP (Sigma Aldrich) to approximately 1 mg/ml (2 mg dissolved in 2 ml HFIP) and shaken at 37° C. for 1.5 hours in tightly sealed Eppendorf vials. This is allowed to cool to room temperature and then the solution is portioned into aliquots and the HFIP removed by evaporation using a Speedvac for approximately 30 minutes. When dry, the Aβ1-42 is stored at −20° C. The Aβ1-42 is dissolved in anhydrous DMSO (Sigma Aldrich) to a concentration of 100 fold that required in PBS (i.e. 10 mM for 100 μM) with the aid of an ultrasonic water bath with/without D-Trp-Aib (SEQ ID NO. 30) (i.e. for a 10:1 ratio with D-Trp-Aib (SEQ ID NO. 30) 100 mM for 10 mM Aβ1-42). This solution is then immediately diluted in PBS to a final concentration of 100 μM Aβ in 1% DMSO. These solutions are allowed to aggregate at room temperature for various times (e.g. 1 hour, 1 day, 1 week) before being used. […]
Extracellular recordings of field excitatory postsynaptic potentials (fEPSPs) are obtained from the dendritic region of the CA1 region of the hippocampus using glass micropipettes (1-2 MW) filled with superfusion solution. […] Amplified fEPSPs and NMDA-EPSCs are filtered (3 kHz), digitized (15 kHz) and measured and plotted online, using the “LTP-program”-software. […]

`CC(C)(NC(=O)[C@H](N)Cc1c[nH]c2ccccc12)C(=O)O` [D-Trp-Aib] (H-[dW]-[Aib]-OH; N-terminus and C-terminus assumed) was tested, and the Aβ1-42 depolarizing effect ([1]; 1 μM D-Trp-Aib co-incubation (90 minutes at 36° C.), Aβ1-42 50 nM, FIG. 1B) was “prevented”, the “average resting potential of RGCs” value ([1]; Aβ 50 nM plus 0.5 μM D-Trp-Aib, n=5) was −39.3±1.8 mV and the “average resting membrane potential of RGCs” value ([1]; Aβ 50 nM plus 1 μM D-Trp-Aib, n=5) was −48.9±2.4 mV. The “difference in resting potential versus Aβ application alone” value ([1]; Aβ plus 0.5 μM D-Trp-Aib) was “No significant difference”, the “protection against Aβ1-42 toxicity (conclusion)” value ([1]; isolated RGCs, Aβ1-42 50 nM) was “protects against Aβ1-42 toxicity” and the “neuroprotective effect for retinal ganglion cells” value (retinal ganglion cells) was “strong neuroprotective effect”. The “inhibition of LTP” value [2] was “significantly less inhibition of LTP”.
